According to paper PMC6018503:

T1: AtRFC2 (Arabidopsis thaliana) (UniProt Q9CAM7)
T1 sequence: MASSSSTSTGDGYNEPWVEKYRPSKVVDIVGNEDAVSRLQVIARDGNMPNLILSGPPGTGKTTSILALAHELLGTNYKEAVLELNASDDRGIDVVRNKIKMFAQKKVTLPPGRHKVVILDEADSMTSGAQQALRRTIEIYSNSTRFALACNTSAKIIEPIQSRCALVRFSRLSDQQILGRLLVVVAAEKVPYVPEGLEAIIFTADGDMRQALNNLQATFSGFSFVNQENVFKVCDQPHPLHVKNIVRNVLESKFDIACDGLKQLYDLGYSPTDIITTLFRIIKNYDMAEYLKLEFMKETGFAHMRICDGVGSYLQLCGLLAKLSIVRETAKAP

T2: AtRFC1 (Arabidopsis thaliana) (UniProt Q9C587)
T2 sequence: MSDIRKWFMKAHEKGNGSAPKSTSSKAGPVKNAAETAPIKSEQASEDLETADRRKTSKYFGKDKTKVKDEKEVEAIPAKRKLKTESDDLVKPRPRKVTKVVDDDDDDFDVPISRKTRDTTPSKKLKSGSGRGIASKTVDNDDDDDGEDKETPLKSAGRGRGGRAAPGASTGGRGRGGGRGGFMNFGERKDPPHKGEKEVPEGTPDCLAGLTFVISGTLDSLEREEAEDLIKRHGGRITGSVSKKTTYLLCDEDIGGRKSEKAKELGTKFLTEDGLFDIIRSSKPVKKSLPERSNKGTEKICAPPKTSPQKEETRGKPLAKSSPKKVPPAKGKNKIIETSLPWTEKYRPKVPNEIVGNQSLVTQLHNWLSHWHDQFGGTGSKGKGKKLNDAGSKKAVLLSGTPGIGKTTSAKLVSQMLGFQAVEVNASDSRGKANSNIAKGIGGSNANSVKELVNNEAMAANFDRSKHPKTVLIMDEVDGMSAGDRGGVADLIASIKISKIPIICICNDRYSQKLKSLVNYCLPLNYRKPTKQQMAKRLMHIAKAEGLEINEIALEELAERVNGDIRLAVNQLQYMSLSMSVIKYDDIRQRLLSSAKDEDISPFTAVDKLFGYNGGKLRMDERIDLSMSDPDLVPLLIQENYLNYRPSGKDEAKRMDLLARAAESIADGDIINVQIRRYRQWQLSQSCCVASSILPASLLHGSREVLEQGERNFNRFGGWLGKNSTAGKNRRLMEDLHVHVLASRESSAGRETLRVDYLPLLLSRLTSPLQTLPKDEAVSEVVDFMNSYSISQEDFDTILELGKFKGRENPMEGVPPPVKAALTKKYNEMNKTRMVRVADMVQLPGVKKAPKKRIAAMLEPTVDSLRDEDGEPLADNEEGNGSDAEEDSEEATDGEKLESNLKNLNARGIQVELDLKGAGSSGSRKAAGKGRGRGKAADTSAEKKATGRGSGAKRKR


Assays:
[1] = target: T1, AtRFC2 (Arabidopsis thaliana); assay: split reporter; BiFC; YFP^N (aa 1-155) and YFP^C (aa 156-239) fusions (pCAMBIA-SPYNE, pCAMBIA-SPYCE) co-expressed in tobacco (Nicotiana benthamiana) leaf epidermal cells through Agrobacterium GV3101; confocal microscopy of YFP; only the two named fusions
[2] = target: T2, AtRFC1 (Arabidopsis thaliana); assay: split reporter; BiFC in tobacco leaf epidermal cells with truncated AtRFC proteins, pairs that include AtRFC1 or a truncated AtRFC1; whether the other small subunits were co-expressed is not said
[3] = target: AtRFC3 (Arabidopsis thaliana); assay: as above

binding [1]	binding [2]	binding [3]	Molecule
binds	no binding	–	AtRFC3 Δ350–369 (Arabidopsis thaliana) (domain or fragment)
no binding	no binding	–	AtRFC3 ΔC330–369 (Arabidopsis thaliana) (domain or fragment)
–	–	no binding	AtRFC1 Δ1-457 (domain or fragment, UniProt Q9C587 458-956) MAANFDRSKHPKTVLIMDEVDGMSAGDRGGVADLIASIKISKIPIICICNDRYSQKLKSLVNYCLPLNYRKPTKQQMAKRLMHIAKAEGLEINEIALEELAERVNGDIRLAVNQLQYMSLSMSVIKYDDIRQRLLSSAKDEDISPFTAVDKLFGYNGGKLRMDERIDLSMSDPDLVPLLIQENYLNYRPSGKDEAKRMDLLARAAESIADGDIINVQIRRYRQWQLSQSCCVASSILPASLLHGSREVLEQGERNFNRFGGWLGKNSTAGKNRRLMEDLHVHVLASRESSAGRETLRVDYLPLLLSRLTSPLQTLPKDEAVSEVVDFMNSYSISQEDFDTILELGKFKGRENPMEGVPPPVKAALTKKYNEMNKTRMVRVADMVQLPGVKKAPKKRIAAMLEPTVDSLRDEDGEPLADNEEGNGSDAEEDSEEATDGEKLESNLKNLNARGIQVELDLKGAGSSGSRKAAGKGRGRGKAADTSAEKKATGRGSGAKRKR

No constants are given. Whether binding was seen depends on the method and setting. In cells and extracts the contact can be indirect. For some assays here: Binding calls can cover weak binding; strength is not graded here.
